# Assay results

Source: PubChem BioAssay AID1918972 (NCATS, 2023).

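KMS12PE multiple myeloma cells were exposed to library compounds for 48 hours, and ATP-based luminescence (CellTiter-Glo) was read as a measure of viability. Each compound was tested as a concentration series spanning about 0.00003 to 92 µM, usually topping out at 45.8 µM. The value is the fitted AC50, the concentration giving half of the maximal effect on viability; a lower value means a more potent compound. Calls come from NCATS curve-class scoring: actives score 40 to 100, and weak, poorly fitted, single-point or opposite-direction curves are called inconclusive with scores of 1 to 39.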

Values are in µM. All entries here are filed as inconclusive. Only part of the assay is shown, chiefly results filed as inconclusive. A potency from a partial, single-point or poor curve is only a rough figure. Some entries filed as inconclusive have a full curve. The first word of each remark tells which way the curve ran; it can be opposite to the aim of the assay. Activity scores are not listed here.

| # | structure | potency (µM) | curve |
|---|---|---|---|
| 1 | `CC(C)(C)NC(=O)[C@H]1CN(Cc2cccnc2)CCN1C[C@@H](O)C[C@@H](Cc1ccccc1)C(=O)N[C@H]1c2ccccc2C[C@H]1O` | 0.1049 | rising, full curve, poor fit |
| 2 | `CC(=O)C1=C(O)C=C2Oc3c(C(C)=O)c(O)c(C)c(O)c3C2(C)C1=O` (centres unmarked) | 37.22 | cytotoxic, single point |
| 3 | `C[C@]12CC[C@H](O)CC1=CC[C@H]1[C@H]3CCC(=O)[C@@]3(C)CC[C@@H]12` | 23.48 | cytotoxic, single point |
| 4 | `NC(=O)c1cccc2cn(-c3ccc([C@@H]4CCCNC4)cc3)nc12` | 33.17 | cytotoxic, single point |
| 5 | `Nc1nc(NCCNc2ncc(-n3ccnc3)c(-c3ccc(Cl)cc3Cl)n2)ccc1[N+](=O)[O-]` | 1.865 | cytotoxic, full curve |
| 6 | `Cc1cnc(Nc2ccc(CN3CCOCC3)cc2)nc1Nc1cccc(S(=O)(=O)NC(C)(C)C)c1` | 33.17 | cytotoxic, single point |
| 7 | `C[C@]12CCC3=C4CCC(=O)C=C4CC[C@@H]3[C@H]1CC[C@@]2(O)CC#N` | 33.17 | cytotoxic, single point |
| 8 | `O=C(O)C1(Cc2cccc(Nc3nccs3)n2)CCC(Oc2cccc(Cl)c2F)CC1` (centres unmarked) | 0.0743 | cytotoxic, full curve |
| 9 | `CCN(c1ccccc1)c1cc(NC)[n+](C)c(C)n1` | 5.899 | cytotoxic, full curve, poor fit |
| 10 | `C=C1C(=O)O[C@H]2[C@@H]1CCC(C)=CCC[C@@]1(C)O[C@@H]21` | 3.317 | cytotoxic, full curve, poor fit |
| 11 | `CC(C)Cn1cnc2c(N)nc3ccccc3c21` | 2.093 | cytotoxic, full curve, poor fit |

2 of the entries, repeated:

structure,potency (µM),curve
Cc1cnc(Nc2ccc(CN3CCOCC3)cc2)nc1Nc1cccc(S(=O)(=O)NC(C)(C)C)c1,33.17,"cytotoxic, single point"
C[C@]12CCC3=C4CCC(=O)C=C4CC[C@@H]3[C@H]1CC[C@@]2(O)CC#N,33.17,"cytotoxic, single point"